The text below walks through data of the supplement of paper PMC5407854, “Inhibitor of ppGalNAc-T3-mediated O-glycosylation blocks cancer cell invasiveness and lowers FGF23 levels” (eLife, 2017).

The full ranking holds about 1,700 compounds; the median of “T2 sensor activation Q score (MG/GFP ratio z-score vs DMSO controls)” is about 0.3, and the highest 2% start at about 1.9. This is one part of the list.

The assay concerns ppGalNAc-T2 sensor. Description: T2 sensor activation Q score (MG/GFP ratio z-score vs DMSO controls) (SD units); higher = more sensor activation (inhibition of ppGalNAc-T2 glycosylation). The note with it: HEK293 sensor cells; 10 µM; 6 h. On the procedure: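 Cells were treated with compound at 10 uM for 6 h, then MG/GFP ratio was read by flow cytometry (10,000 cells per well, duplicate wells). Q = (R - R_neg)/SD_neg relative to DMSO vehicle controls; the signal rises when the glycosyltransferase is inhibited.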
Take `CC(C)=NNc1ncnc2nc[nH]c12`: the “T2 sensor activation Q score” value came to 1.25.
Then `CCC/C(C)=C/c1ccc(CC)cn1`, with -0.95.
As for `Cc1ccccc1NC(=O)Oc1cccc(OC(=O)c2ccccc2)c1`, the “T2 sensor activation Q score” value amounted to 0.7.
Then `CC1(c2ccc3ccccc3c2)CCC(=O)O1` (stereo unspecified), with 0.05; and `CCCCCc1cc(=O)[nH]c(=S)[nH]1`, with -1.65; and `COC1OC(CO)C(N=C(C)C)C1O` (stereo unspecified), with 0.95.
The figure for `Nc1cccc2c1C(=O)N(C1CCC(=O)NC1=O)C2=O` (stereo unspecified) is -1.1; for `O=c1nc2onnc2c(/C=N\O)[nH]1` it is 1.25; for `CC(C)(C)C(=O)/C=C/c1ccc(Oc2ccccc2)cc1` it is -1.6.
The figure for `NC(=O)Cc1ccc2c(c1)[nH]c1ccccc12` is 0.15; for `O=c1cc2oc3cc(O)c(O)cc3c(-c3ccccc3O)c-2cc1O` it is -3.75.
As for `C=CCOc1c(CCC)cc(CCC)cc1C(N)=O`, the “T2 sensor activation Q score” value came to 1.5.
Regarding `Cc1ccc(CC#N)c(-c2c(CC#N)ccc(C)c2C)c1C`, the “T2 sensor activation Q score” value is 0.85.
Then `CCC(CC)c1ncc[nH]1`, with 0.65; and `CC(C)=CCC/C(C)=C\C(N)=O`, with 0.55; and `NC(=O)NC(=O)c1nccnc1C(=O)O`, with -0.2.
Then `Cc1cccc(N2CCN(CC(O)COc3ccccc3Cl)CC2)c1` (stereo unspecified), with 0.75; and `CC(C)Cc1nnc(N)s1`, with 1.85; and `CN(C)C=Nc1ccc(Cl)c(Cl)c1`, with -1.85.
Then `CC(=O)c1c(O)c(C)c(O)c2c1OC1=CC(=O)/C(=C(/C)N)C(=O)C12C` (stereo unspecified), with -1.2; and `Cc1cc(N(C)C)ccc1N=Nc1ccc2ncccc2c1`, with -0.9; and `CC(C1=C(CCN(C)C)Cc2ccccc21)c1ccccn1` (stereo unspecified), with -1.6.
With `Cn1nc(NC(=O)C(F)(F)F)c2ncc(-c3ccc(Cl)cc3)nc21`, the “T2 sensor activation Q score” value came to 0.5.
Consider `COc1cc(S(N)(=O)=O)c(OC)cc1N`, for which the “T2 sensor activation Q score” value was determined as 1.7.
The figure for `C=C(C)c1nc(Oc2ccccc2)nc(Oc2ccccc2)n1` is -1.35.
Then `CC1(C)CC[C@]2(C(=O)n3ccnc3)CC[C@]3(C)[C@H](C(=O)C=C4[C@@]5(C)C=C(C#N)C(=O)C(C)(C)[C@@H]5CC[C@]43C)[C@@H]2C1`, with 0.7; and `Cc1ccc(NC(=O)Nc2ccccc2C(N)=O)cc1`, with 0.9.
Then `O=C1NCCc2c1[nH]c1ccccc21`, with -0.1.
Turning to `CC(=O)OC1CCC2(C)C(=CCC3C2CCC2(C)C3CC3OC4(CCC(C)CN4)C(C)C32)C1` (stereo unspecified), the “T2 sensor activation Q score” value worked out at 1.45.
Turning to `CN1C2CCC1CC(OC(c1ccccc1)c1ccccc1)C2` (stereo unspecified), the “T2 sensor activation Q score” value is 0.05.
The figure for `Cc1cc(N)c2cc(NC(=O)C=Cc3ccccc3Cl)ccc2n1` is 1.5; for `O=c1cc/c(=N\Nc2ccccc2)c(=O)/c1=N/Nc1ccccc1` it is -1.7.
The figure for `N#Cc1cnn2ccn(C3OC(CO)C(O)C3O)c12` (stereo unspecified) is 1.5; for `NC(=S)N/N=C\c1cc(-c2cccc(N)c2)ccn1` it is 0; for `CC(=O)Nc1cc(NC(C)=O)ncn1` it is -0.9.
For `Cc1c(C#N)c2n(c1C)CCCC(=O)N2`, the “T2 sensor activation Q score” value was 0.6.
The figure for `OC(COc1ccccc1)CN1CCN(c2ccccc2)CC1` (stereo unspecified) is 0.2.
Consider `C1=Cc2ccccc2Nc2ccccc21`, for which the “T2 sensor activation Q score” value is -0.4.
The figure for `NNC(=O)Cc1cc(=O)[nH][nH]1` is -0.7.
Then `CC(=O)NCC(O)c1ccc([N+](=O)[O-])cc1` (stereo unspecified), with 0.7.
For the compound `O=c1nccc(SCc2ccc(Cl)cc2Cl)[nH]1`, the “T2 sensor activation Q score” value came out at 1.5.
The figure for `Cc1cc(C)c(C#N)c(Sc2nc(C)c([N+](=O)[O-])c(C)c2C#N)n1` is 1.25; for `CC(=O)OC1COC(OC(C)=O)CO1` (stereo unspecified) it is -1.35; for `Oc1ccc2ccc3[nH]cnc3c2c1` it is -0.55.
In the case of `COc1cccc2c1C(=O)c1c(O)c3c(c(O)c1C2=O)C[C@@](O)(C(=O)CO)C[C@@H]3O[C@H]1C[C@H](N)[C@H](O)[C@H](C)O1`, the “T2 sensor activation Q score” value was -2.2.
The figure for `Cn1c(=O)c2c(nc(Oc3ccccc3)n2C)n(C)c1=O` is 1.85; for `NC(=Nc1nc(-c2ccccn2)cc2ccccc12)c1ccccn1` it is 0; for `O=C(O)c1cncc(Br)c1` it is -1.05.
The figure for `Nc1nc(Cl)nc2c1ncn2[C@H]1C[C@H](O)[C@@H](CO)O1` is -2.15.
Then `O=C(NCc1ccco1)Nc1cccc([N+](=O)[O-])c1`, with 1.3.
As to `CCN1CCCC(Sc2nc3c([nH]2)c(=S)n(C)c(=O)n3C)C1` (stereo unspecified), the “T2 sensor activation Q score” value was found to be 0.45.
Then `O=c1[nH]c(=S)[nH]cc1Oc1ccc(Cl)cc1Cl`, with 1.15.
Consider `C=CCNc1ncnc2sc(SC)nc12`, for which the “T2 sensor activation Q score” value is -1.25.
The figure for `OC[C@H]1O[C@@H](n2cnc3c2NC=NC[C@H]3O)C[C@@H]1O` is -0.15; for `O=C(O)/C=C\C(=O)Nc1nccs1` it is -1.05; for `Cc1cc(O)c(-c2cc(O)c(C)cc2O)cc1O` it is -2.95.
With `CCOC(=O)c1c(C)nc(C)c(C(=O)OCC)c1-c1ccc(OC)cc1`, the “T2 sensor activation Q score” value came out at 0.35.
Then `CSc1ncc2ncn(C3OC(CO)C(O)C3O)c2n1` (stereo unspecified), with 1.05; and `CC(=O)Nc1nc(C)c(CCC2OCCO2)c(=O)[nH]1`, with 1.7.
The figure for `NC(N)=NC(N)=Nc1ccc(O)cc1` is -0.35; for `CCC(CNc1cc(OC)cc2cccnc12)NC1CCCCC1` (stereo unspecified) it is -0.95; for `CCOC(=O)CC(=O)NC(C)(C)CCCCC(C)(C)NC(=O)CC(=O)OCC` it is -0.4.
The figure for `Clc1ccc(Nc2nnc(-c3ccc4c(c3)OCO4)o2)cc1` is -0.7; for `C(=C\c1ccncc1)/c1ccncc1` it is -0.8; for `Cn1c2c(c(=O)n(C)c1=O)NC1(N2)C(=O)Nc2ccccc21` (stereo unspecified) it is 0.4.
On to `Cc1nnc2nc(-c3ccccc3)nc(-c3ccccc3)n12`, for which the “T2 sensor activation Q score” value was 1.4.
The figure for `CC(=O)NCC1(O)CCCC(C)C1` (stereo unspecified) is 1.25; for `CSc1ccc2c(c1)C(N1CCN(C)CC1)Cc1ccccc1S2` (stereo unspecified) it is -0.55; for `C=CCc1ccccc1OCC(=O)O` it is 1.7.
The figure for `O/N=C(/c1ccccc1)c1ccc2c3c(cccc13)CC2` is 0.9.
Then `CCOCc1cc(=O)[nH]c(SC)n1`, with -0.05.
Take `CC(=O)n1cc(C2CC(=O)OC3=C2CC(=O)C(C)(C)C3)c2ccccc21` (stereo unspecified): the “T2 sensor activation Q score” value is 0.15.
The figure for `COc1c(C=O)c2c(c(OC)c1OC)-c1ccc(OC)c(=O)cc1C(NC(C)=O)CC2` (stereo unspecified) is 0.6; for `O=c1ccnc(Nc2ccc(Cl)cc2)[nH]1` it is 0.5; for `CCNc1nc(NC(C)C)nc(-c2ccncc2)n1` it is 0.65.
Then `CN(C)Cc1cc(C(F)(F)F)ccc1C(O)(c1ccccc1)c1ccccc1`, with 1.1; and `CCCc1cc(=O)oc2c3c(c4c(c12)OC(C)(C)C=C4)O[C@H](C)[C@@H](C)[C@@H]3O`, with -0.05.
The figure for `N/C(CC(=O)Nc1cc(C(F)(F)F)ccc1Cl)=N\O` is -1.65; for `Cc1c(NC(=O)Nc2c(Cl)cccc2Cl)c(=O)n(-c2ccccc2)n1C` it is 0.7; for `CCOC(=O)c1nn(-c2ccccc2)cc1O` it is 0.9.
As for `Nc1nc(Cl)cc(Nc2ccccc2Cl)n1`, the “T2 sensor activation Q score” value turned out to be 0.6.
